Reference: PubChem BioAssay AID1347423 (Functional Genomics Laboratory (NCATS/FGL), 2020)
About 210 (0.4%) of roughly 52,000 sequences were called active.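 How the source made its calls: active means gene whose silencing raises cell survival under the drug, median off-target-corrected z-score across its silencing RNAs 2 or more; inactive means the rest.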 Some of the results follow.

Test: Resistance to Poly (ADP-Ribose) Polymerase inhibitor: Gene Identification via Genome-wide siRNA Screen
Settings: mouse BRCA2 R2336H ES cells, olaparib, CellTiter-Glo viability; stronger effect = higher value
Outline: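 Mouse BRCA2 R2336H ES cells were reverse-transfected with siRNA (20 nM final), treated at 48 h with 500 nM olaparib, and read by CellTiter-Glo after 72 h. Scores: MAD-based z per siRNA, median per gene, seed off-target correction.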

Sequence	z-score
GGGUGUUUGGUUGUGAUCUTT against Snx26	inactive: -1.2
GCUACUAUUCCAUCCAUCATT against Apg4b	inactive: -0.363
GGACCAUGUGAUAAUAUCGTT against Als2	inactive: 0.858
GCUGAAGACCGACUACAAGTT against Cnih	inactive: 0.86
GGAGAUUGGAAGAAGAAAATT against Sash1	inactive: -1.28
GCCUAAAAACUCUAAAUCUTT against Mut	inactive: -0.00594
GGCAAGAGUGUUUUCAUACTT against Insl6	inactive: -1.16
GCCCUGUUUUGAUCCAUGCTT against Slitrk3	inactive: -0.0319
GGGAGACCCAAUGUCAUCATT against Dtx3	inactive: 1.19
GGAUUUUAAAAUUCCCAGUTT against Usp33	inactive: -0.0193
CCUCUGAGUGGAACACCUATT against 6330577E15Rik	inactive: -1.53
GGAGAGAAGAAAAAAAGAATT against 5830434P21Rik	inactive: -0.124
GGCUACAGCAGCAAUUACATT against 3110050K21Rik	inactive: 1.32
CCUGAGGAACUCCAACCAATT against Ltbp4	inactive: -0.161
CCUUGUAGCUCUUUAUAAATT against Strn	inactive: 2.21
GGCAGCAAGACAACUUUUGTT against Foxp2	inactive: 0.451
GGAUUUGGGACUAAUUACGTT against Hsd17b7	inactive: -1.58
GGACAGCUGGCUUCUAAAUTT against 4933403M22Rik	inactive: 0.822
CGUGUCUGUUCUCGUUCUGTT against 0610043B10Rik	inactive: 0.338
CCUUAUUUCGAGCUGUGAATT against 1810030N24Rik	inactive: -0.583
GCCUUACUCUCUCAGUCCUTT against D930018N13	inactive: -1.82
GGGUUUCUUGUUUCUUAGATT against Aldh6a1	inactive: -0.568
GGCUAAAAUCCAUGACAUUTT against Hspa1l	inactive: 1.02
GGAUUCUAUGACAAAGACATT against Ddx3x	inactive: -2.15
GGAAUACCAGGAAAAUAGUTT against Chm	inactive: 0.127
GGUGGAAAGUAUCGUUGACTT against Cdyl	inactive: -0.352
GGUGGUUUAAAAAACUGCUTT against Faah	inactive: -0.97
GGUUCUACUUCAGCUGCCUTT against Asah3	inactive: -0.442
GGGAAACUCGAGAUGUGCATT against Ankmy2	inactive: 1.2

An excerpt of these results, field by field:
CCUCUGAGUGGAACACCUATT against 6330577E15Rik
  z-score: inactive: -1.53
GGAGAGAAGAAAAAAAGAATT against 5830434P21Rik
  z-score: inactive: -0.124
